Library screen at single concentrations

Sequences of proteins named here, by UniProt entry; tags and fusion partners are left off.
UniProt P9WPC5, whole entry: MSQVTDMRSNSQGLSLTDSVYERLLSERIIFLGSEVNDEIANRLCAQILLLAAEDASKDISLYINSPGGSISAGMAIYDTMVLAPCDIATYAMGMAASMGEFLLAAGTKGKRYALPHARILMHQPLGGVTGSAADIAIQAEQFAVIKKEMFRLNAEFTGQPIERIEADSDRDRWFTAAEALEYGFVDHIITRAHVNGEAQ
UniProt P9WPC3, whole entry partner: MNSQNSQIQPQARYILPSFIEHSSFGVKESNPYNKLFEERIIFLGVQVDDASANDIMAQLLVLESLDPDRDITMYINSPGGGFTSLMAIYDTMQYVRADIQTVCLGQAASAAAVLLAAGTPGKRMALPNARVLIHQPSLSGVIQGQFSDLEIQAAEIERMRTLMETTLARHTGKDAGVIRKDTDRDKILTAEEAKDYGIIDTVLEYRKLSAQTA

From ChEMBL document CHEMBL3988442, “University of Dundee, Small-Polar-MMV Screening Library” (2021).

The filed quantity is “Percent Effect” (%). The controls that fix the scale are not given in the record; negative values are as filed. This is an unselected part of the compounds tested.

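Protease assay of ClpP1P2, read by the AMC dye that it sets free. Target: ClpP1P2, Mycobacterium tuberculosis (UniProt P9WPC5 and UniProt P9WPC3). Tested at 50 µM. Direction is inferred from only a few compounds that gave an IC50; most scored high, so higher reads as stronger inhibition. Most other retested compounds had strongly negative values. Of about 69,000 compounds tested this way, about 10 (0.015%) reached 50% or more in at least one test.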

SMILES,percent effect
CC(C)Cc1noc(-c2ccc(NCc3noc(C(C)C)n3)nc2)n1,-8.524
COc1cc(N2C[C@H]3CN(Cc4ccccn4)C[C@H]3C2)ncn1,-4.739
CCOCCN1Cc2ncn(C)c2C(COCC2CCOCC2)C1 (stereo not given),-5.136
COCC[C@]1(O)CCN(CC(=O)NCc2ccccn2)C[C@H]1C,-4.229
COCCN1C(=O)CC(c2cccnc2)C12CCN(C)CC2 (stereo not given),-16.55
Cn1cccc1C(=O)NCc1cn2c(n1)CN(C(=O)c1ccsc1)CC2,12.74
CCCn1nc2c(cc1=O)CN(c1ncnc3ccsc13)CC2,-4.429
CC(=O)N1CCc2c(nc(-c3ccncc3)nc2N(C)CC(O)CO)C1 (stereo not given),-14.8
CCOc1cncc(N2CCCC2c2nnc3n2CCCCC3)n1 (stereo not given),-40.75
O=C(CCc1cc2n(n1)CCCN(C(=O)c1ccncc1)C2)NC1CC1,-8.404
Cn1cc(CN2Cc3cn(C)nc3C(COCC3CC3)C2)cn1 (stereo not given),-11.52
CCC(=O)Nc1ccc2c(c1)C1(CCOCC1)CN2CCF,-10.64
COc1ccnc(N2CCN(C(=O)NCc3ccc(C)s3)CC2)n1,0.7325
Cc1cc(CNc2cccc(C(=O)N(C)c3ccccc3)c2)no1,-10.47
O=C(c1cncs1)N1CCCC1c1ccn[nH]1 (stereo not given),3.838
CC(C)c1nc(CN2CCCN(Cc3nnc(C4CC4)o3)CC2)no1,5.963
CCN(Cc1ccncc1)C1CCCN(C/C=C/c2ccc(F)cc2)C1 (stereo not given),-6.952
O=C1N[C@@H]2CCN(C(=O)c3ccccc3)[C@@H]2C(=O)N1Cc1ccccc1,-5.492
CCN1CC2(CCC1=O)CCN(C(=O)C(O)c1cccc(Cl)c1)CC2 (stereo not given),-2.198
CCn1ccnc1CN1CCCC(CO)(Cc2cccc(Cl)c2)C1 (stereo not given),-17.33
FC(F)(F)CN1CCC(CNc2nc3ccccc3o2)C1 (stereo not given),2.495
CC(C)CN1C(=O)C2(CCN(Cc3cccs3)C2)c2ccccc21 (stereo not given),-47.55
C[C@@H]1CN(C(=O)CCN2CCCC2)CC[C@@]1(O)C1CCOCC1,-8.442
COCC1N(C(=O)N2CCOCC2)[C@H]2CC[C@]1(O)CC2 (stereo not given in full),-4.519
CNc1nc(C)c(C(=O)NCC(C)(C)N2CCCCC2)s1,5.32
O=C(c1cc(Cl)c[nH]1)N1CCN(CCc2ccccn2)CC1,-2.909
O=c1c2cnc(N3CCCCC3)nc2ccn1-c1ccccc1F,8.43
CS(=O)(=O)CCCSCc1cc(F)cc(Br)c1,-11.3
c1cnc(N2CCOC3(CCN(CC4CCCCC4)CC3)C2)nc1,2.256
CCN1C(=O)CC(c2cccnc2)C12CCN(c1ncc(F)cn1)CC2 (stereo not given),1.626
N#Cc1ccccc1CN1C[C@@H]2CC[C@H](C1)N(CC1CC1)C2=O,-3.846
COC(=O)CNCC1(O)CCCN(Cc2cccc(F)c2F)C1=O (stereo not given),0.3583
Cc1nnc(NC(=O)CN2CCc3nn(C)c(=O)cc3C2)s1,-19.02
Cc1cccc(CNC[C@H]2Cn3cc(-c4ccccc4)nc3CO2)n1,-13.51
CC(C)Cn1cncc1CNC1CCSCC1,0.8269
Cc1cccc(NS(=O)(=O)c2ccc(C#N)nc2)c1C#N,-0.7597
CC(Cn1cccn1)NC(=O)NCCc1ccsc1 (stereo not given),-3.078
O=C1NCCCCC1NC(=O)N1CCc2ccccc21 (stereo not given),-1.943
CC(NC(=O)NCc1ccc(Cl)cc1)c1ccccn1 (stereo not given),6.132
CN(C)C(=O)NC1COC2(CCN(Cc3ccco3)CC2)C1 (stereo not given),-15.02
CS(=O)(=O)c1ccc(NC(=O)N2C[C@H](O)[C@@H](N3CCOCC3)C2)cc1,-5.067
Cc1cc(C)nc(N2CCN(C(=O)c3cc(Cl)c[nH]3)CC2)n1,0.9703
COc1ccc2c(c1)OCC(Cc1cnccc1N)C2 (stereo not given),3.728
Cc1cc2c(=O)n(CC(=O)N3CCn4cccc4C3C(C)C)cnc2s1 (stereo not given),-18.37
CC(O)(CN1CCC2(CC1)OCCO2)c1cccc(C(F)(F)F)c1 (stereo not given),-4.213
COCC(NC(=O)NCc1ccc(C)c(F)c1)c1ccco1 (stereo not given),1.992
Cc1nnc2n1CCN(c1nn3cc(C(C)(C)C)nc3s1)C2,-0.7804
Cn1cc(-c2csc(N3CCCCCC3)n2)cn1,-5.395
COc1ccccc1-c1cc(C(=O)Nc2nc[nH]n2)[nH]n1,-18.34
CC(O)(CNC(=O)c1cccnc1-n1cccn1)c1ccsc1 (stereo not given),-6.711
CC(C(=O)N1CCCC1)S(=O)(=O)Cc1nc(C(C)(C)C)no1 (stereo not given),-10.43
COc1ccc(CN2C[C@@H]3COC[C@@H](CC(=O)N4CCCC4)[C@@H]3C2)cc1,8.96
CCc1nc(CCNc2ncccc2C#N)sc1C,-5.774
CS(=O)(=O)NCc1cncc2c1CCN(C(=O)c1cccnc1)C2,-14.86
Cc1nc(-c2ccc(S(=O)(=O)N3CCSCC3)cc2)co1,-2.892
CC(C)NC(=O)CC1COC2(CCN(Cc3cccs3)CC2)C1 (stereo not given),9.761
CN(C)C(=O)N1CCN(C)c2ncccc2C1,3.128
Cc1nnc2n1CCN(Cc1csc(COc3ccccc3)n1)C2,-7.645
Cn1cc(C2CC(=O)NC23CCN(Cc2nccs2)CC3)cn1 (stereo not given),-16.54
CCCC(=O)N1CC[C@@H]2[C@H](CC1)N(Cc1cccc(C)n1)CCS2(=O)=O,4.531
COc1cccc(CNC[C@@]2(COc3cccnc3)C[C@@H](O)[C@@H](O)C2)c1,-11.72
CNC(=O)CS(=O)(=O)Cc1coc(-c2cccc(F)c2)n1,6.722
CC(C)c1noc(CCCC(=O)N2CCN(Cc3cccnc3)CC2)n1,-4.709
CO[C@H]1CN(C(=O)c2ccc[nH]2)[C@@H]2COC[C@H]12,-15.38
Cc1nc(CN2CCCC(N(C)c3cnc4ccccc4n3)C2)no1 (stereo not given),-2.966
Cc1csc2ncc(-c3ccnc(N4CCCC4)n3)c(=O)n12,-1.208
Cc1nc(CCN)cc(N2CCCN(C(=O)c3ccco3)CC2)n1,-13.56
COCC1COCCC12CCN(C(=O)CC1Cc3ccccc3C1)CC2 (stereo not given),-0.7046
CCN(C)C(=O)c1cccc(S(=O)(=O)NCCc2nc(C)cc(=O)[nH]2)c1,5.271
CC1c2ncc(CN3CCN(C)CC3)n2CCN1Cc1cnn(C)c1 (stereo not given),8.964
CS(=O)(=O)N1CCC2(CCCN(c3ncc(F)cn3)C2)C1 (stereo not given),-10.23
CCCC1CCN(C(=O)c2coc(COc3ccc(OC)cc3)n2)C1 (stereo not given),0.1544
CN(CCc1ccncc1)c1cnn(C)c(=O)c1Br,-13.59
O=C(CN1CCC(c2cc(=O)n3c(n2)CCCCC3)C1)N1CCCCC1 (stereo not given),14.12
Cc1cc2c(o1)CC(C)(C)CC2NC(=O)CNC(=O)C1CC1 (stereo not given),7.128

The last 5 entries again:

SMILES	percent effect
CS(=O)(=O)N1CCC2(CCCN(c3ncc(F)cn3)C2)C1 (stereo not given)	-10.23
CCCC1CCN(C(=O)c2coc(COc3ccc(OC)cc3)n2)C1 (stereo not given)	0.1544
CN(CCc1ccncc1)c1cnn(C)c(=O)c1Br	-13.59
O=C(CN1CCC(c2cc(=O)n3c(n2)CCCCC3)C1)N1CCCCC1 (stereo not given)	14.12
Cc1cc2c(o1)CC(C)(C)CC2NC(=O)CNC(=O)C1CC1 (stereo not given)	7.128